Measured values published in article PMC6368539.
These are yes or no findings as the source states them, for the method shown. For some assays here: In cells and extracts the contact can be indirect. Some binding calls cover weakened binding; strength is not graded here.

The chains behind the UniProt entries cited, without tags or fusion partners. Where a name states a change or a piece, a line headed by the entry shows the natural chain unless it says otherwise. Residues count along the entry.
UniProt P08034: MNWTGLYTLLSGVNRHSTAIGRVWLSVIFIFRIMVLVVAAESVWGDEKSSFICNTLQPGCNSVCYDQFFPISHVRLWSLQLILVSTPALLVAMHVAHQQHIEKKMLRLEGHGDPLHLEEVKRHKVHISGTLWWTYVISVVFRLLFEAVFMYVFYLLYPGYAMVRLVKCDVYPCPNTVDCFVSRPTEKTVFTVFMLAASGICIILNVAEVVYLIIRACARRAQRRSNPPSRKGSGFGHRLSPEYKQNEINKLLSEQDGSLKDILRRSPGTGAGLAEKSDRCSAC
UniProt Q5UCC4, residues 26-262: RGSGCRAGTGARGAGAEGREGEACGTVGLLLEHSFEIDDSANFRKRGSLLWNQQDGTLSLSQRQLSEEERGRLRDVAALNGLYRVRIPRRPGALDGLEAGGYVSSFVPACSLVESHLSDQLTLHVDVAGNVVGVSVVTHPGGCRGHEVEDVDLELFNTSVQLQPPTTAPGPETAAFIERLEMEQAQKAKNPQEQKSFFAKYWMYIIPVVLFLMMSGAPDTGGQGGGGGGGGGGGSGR
UniProt G3I8R9, residues 19-654: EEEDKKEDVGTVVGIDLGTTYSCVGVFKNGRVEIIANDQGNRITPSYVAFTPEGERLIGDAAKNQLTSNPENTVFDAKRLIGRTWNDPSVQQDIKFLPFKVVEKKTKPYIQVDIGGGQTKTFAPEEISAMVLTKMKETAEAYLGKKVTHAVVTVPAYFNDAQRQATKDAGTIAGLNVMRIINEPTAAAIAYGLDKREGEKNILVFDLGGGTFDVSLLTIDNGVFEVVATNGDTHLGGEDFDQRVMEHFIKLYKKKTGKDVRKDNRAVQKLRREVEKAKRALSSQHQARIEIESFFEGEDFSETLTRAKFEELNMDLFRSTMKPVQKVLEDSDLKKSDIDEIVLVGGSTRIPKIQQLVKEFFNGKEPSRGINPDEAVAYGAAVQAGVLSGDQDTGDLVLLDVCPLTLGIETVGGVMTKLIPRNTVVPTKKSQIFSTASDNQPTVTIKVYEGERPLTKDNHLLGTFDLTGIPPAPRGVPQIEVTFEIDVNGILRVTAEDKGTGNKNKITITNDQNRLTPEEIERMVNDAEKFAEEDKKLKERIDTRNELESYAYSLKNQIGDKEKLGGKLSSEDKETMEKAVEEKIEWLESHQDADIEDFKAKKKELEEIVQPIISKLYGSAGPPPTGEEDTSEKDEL

Key:
[1] = target: connexin 32 L90H, FLAG-tagged (human) (UniProt P08034); test: co-IP; FLAG-tagged Cx32 constructs precipitated from transfected HEK293T cells with anti-FLAG (M2) affinity gel; lysis in 50 mM Tris-HCl pH 7.5, 150 mM NaCl, 1% digitonin; washes with 0.5% digitonin; 4 °C; endogenous partners detected by immunoblot
[2] = target: connexin 32 wild type, FLAG-tagged (human) (UniProt P08034); test: as above
[3] = target: connexin 32 wild type, FLAG-tagged (human) (UniProt P08034); test: SDS-PAGE and immunoblot (SDS-resistant dimers); Cx32 constructs from transfected HEK293T cells on reducing SDS-PAGE gels; monomer and dimer bands seen by immunoblot
[4] = target: connexin 32 L90H, FLAG-tagged (human) (UniProt P08034); test: as above
[5] = target: connexin 32 L81H, FLAG-tagged (human) (UniProt P08034); test: co-IP; FLAG-tagged Cx32 constructs co-transfected with hamster BiP in HEK293T; anti-FLAG precipitation; lysis in NP40 buffer supplemented with apyrase; washes in NP40 buffer with 400 mM NaCl; immunoblot
[6] = target: connexin 32 L90H, FLAG-tagged (human) (UniProt P08034); test: as above
[7] = target: connexin 32 L90H, FLAG-tagged (human) (UniProt P08034); test: co-IP; FLAG-tagged Cx32 constructs precipitated from transfected HEK293T cells with anti-FLAG (M2) affinity gel; lysis in 50 mM Tris-HCl pH 7.5, 150 mM NaCl, 1% digitonin; washes with 0.5% digitonin; 4 °C; endogenous partners detected by immunoblot; remark: listed apart in the source
[8] = target: connexin 32 wild type, FLAG-tagged (human) (UniProt P08034); test: as above; remark: listed apart in the source

Molecule: ER-membrane protein complex (EMC) subunit 10 (from UniProt Q5UCC4 26-262)
- binding [1]: binds
- binding [2]: binds

Molecule: connexin 32 wild type, FLAG-tagged (from UniProt P08034 1-283)
- binding [3]: binds

Molecule: connexin 32 L90H, FLAG-tagged (from UniProt P08034 1-283)
- binding [4]: binds

Molecule: hamster BiP (from UniProt G3I8R9 19-654)
- binding [5]: binds
- binding [6]: binds

B1: Calnexin (protein, UniProt P27824 21-592)
chain: HDGHDDDVIDIEDDLDDVIEEVEDSKPDTTAPPSSPKVTYKAPVPTGEVYFADSFDRGTLSGWILSKAKKDDTDDEIAKYDGKWEVEEMKESKLPGDKGLVLMSRAKHHAISAKLNKPFLFDTKPLIVQYEVNFQNGIECGGAYVKLLSKTPELNLDQFHDKTPYTIMFGPDKCGEDYKLHFIFRHKNPKTGIYEEKHAKRPDADLKTYFTDKKTHLYTLILNPDNSFEILVDQSVVNSGNLLNDMTPPVNPSREIEDPEDRKPEDWDERPKIPDPEAVKPDDWDEDAPAKIPDEEATKPEGWLDDEPEYVPDPDAEKPEDWDEDMDGEWEAPQIANPRCESAPGCGVWQRPVIDNPNYKGKWKPPMIDNPSYQGIWKPRKIPNPDFFEDLEPFRMTPFSAIGLELWSMTSDIFFDNFIICADRRIVDDWANDGWGLKKAADGAAEPGVVGQMIEAAEERPWLWVVYILTVALPVFLVILFCCSGKKQTSGMEYKKTDAPQPDVKEEEEEKEEEKDKGDEEEEGEEKLEEKQKSDAEEDGGTVSQEEEDRKPKAEEDEILNRSPRNRKPRRE
- binding [7]: binds
- binding [8]: binds
